Assay [1] concerns the target BRCC3 (human, endogenous in U937) (human (endogenous in U937)) (UniProt P46736). The assay is described as follows: co-IP; endogenous BRCC3 IP (anti-BRCC3, ProteinA-Dynabeads) from NLRP3-deficient U937 reconstituted with NLRP3 mutants; PMA and doxycycline (16 h), LPS (5 h), nigericin (20 min); NLRP3 by WB.
For assay [2], the target named is BRCC3 (mouse) (mouse (endogenous in BMDMs)) (UniProt P46737). Description: co-IP; endogenous BRCC3 IP (anti-BRCC3, ProteinA-Dynabeads) from primary BMDMs or immortalized WT BMDMs treated with LPS (6 h) and nigericin (30 min); 1% NP-40, 150 mM NaCl; NLRP3 by WB.
In assay [3] the target is CSNK1A1 (mouse) (mouse (endogenous in BMDMs)) (UniProt Q8BK63). The assay is described as follows: co-IP; endogenous CSNK1A1 IP (anti-CSNK1A1 301-991A, Protein A/G resin) from BMDMs treated with LPS (50 ng/ml, 6 h); 150 mM Tris-HCl pH 7.4, 300 mM NaCl, 1% NP-40; NLRP3 by WB.

By UniProt entry, the sequences of proteins in these tests, tags left out. Where a name states a change or a piece, a line headed by the entry shows the natural chain unless it says otherwise.
UniProt P46736: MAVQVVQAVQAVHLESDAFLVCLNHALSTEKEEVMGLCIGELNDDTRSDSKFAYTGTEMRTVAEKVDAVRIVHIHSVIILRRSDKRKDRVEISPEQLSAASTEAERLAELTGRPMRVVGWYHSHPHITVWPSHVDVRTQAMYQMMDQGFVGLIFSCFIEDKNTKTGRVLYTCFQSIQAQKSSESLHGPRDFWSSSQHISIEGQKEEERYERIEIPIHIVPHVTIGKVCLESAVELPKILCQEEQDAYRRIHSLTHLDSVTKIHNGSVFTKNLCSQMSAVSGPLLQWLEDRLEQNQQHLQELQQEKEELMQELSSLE
UniProt P46737: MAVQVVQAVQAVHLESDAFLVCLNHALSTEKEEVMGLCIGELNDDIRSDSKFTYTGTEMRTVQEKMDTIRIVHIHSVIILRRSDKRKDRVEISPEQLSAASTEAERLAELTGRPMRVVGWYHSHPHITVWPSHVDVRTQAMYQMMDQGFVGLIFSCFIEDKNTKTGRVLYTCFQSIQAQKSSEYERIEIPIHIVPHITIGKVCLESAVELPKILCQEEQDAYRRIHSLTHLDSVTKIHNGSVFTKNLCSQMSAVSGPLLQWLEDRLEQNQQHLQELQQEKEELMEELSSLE
UniProt Q8BK63: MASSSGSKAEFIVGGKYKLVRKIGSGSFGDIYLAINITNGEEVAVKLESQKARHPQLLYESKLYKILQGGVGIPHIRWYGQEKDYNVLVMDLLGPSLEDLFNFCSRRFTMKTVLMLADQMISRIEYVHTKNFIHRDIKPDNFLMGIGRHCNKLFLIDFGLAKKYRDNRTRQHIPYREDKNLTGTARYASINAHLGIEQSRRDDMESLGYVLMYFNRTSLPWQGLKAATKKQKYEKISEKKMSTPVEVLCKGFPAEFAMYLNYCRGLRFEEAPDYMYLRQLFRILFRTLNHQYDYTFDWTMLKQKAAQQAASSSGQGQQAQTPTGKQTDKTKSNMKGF
UniProt Q96P20: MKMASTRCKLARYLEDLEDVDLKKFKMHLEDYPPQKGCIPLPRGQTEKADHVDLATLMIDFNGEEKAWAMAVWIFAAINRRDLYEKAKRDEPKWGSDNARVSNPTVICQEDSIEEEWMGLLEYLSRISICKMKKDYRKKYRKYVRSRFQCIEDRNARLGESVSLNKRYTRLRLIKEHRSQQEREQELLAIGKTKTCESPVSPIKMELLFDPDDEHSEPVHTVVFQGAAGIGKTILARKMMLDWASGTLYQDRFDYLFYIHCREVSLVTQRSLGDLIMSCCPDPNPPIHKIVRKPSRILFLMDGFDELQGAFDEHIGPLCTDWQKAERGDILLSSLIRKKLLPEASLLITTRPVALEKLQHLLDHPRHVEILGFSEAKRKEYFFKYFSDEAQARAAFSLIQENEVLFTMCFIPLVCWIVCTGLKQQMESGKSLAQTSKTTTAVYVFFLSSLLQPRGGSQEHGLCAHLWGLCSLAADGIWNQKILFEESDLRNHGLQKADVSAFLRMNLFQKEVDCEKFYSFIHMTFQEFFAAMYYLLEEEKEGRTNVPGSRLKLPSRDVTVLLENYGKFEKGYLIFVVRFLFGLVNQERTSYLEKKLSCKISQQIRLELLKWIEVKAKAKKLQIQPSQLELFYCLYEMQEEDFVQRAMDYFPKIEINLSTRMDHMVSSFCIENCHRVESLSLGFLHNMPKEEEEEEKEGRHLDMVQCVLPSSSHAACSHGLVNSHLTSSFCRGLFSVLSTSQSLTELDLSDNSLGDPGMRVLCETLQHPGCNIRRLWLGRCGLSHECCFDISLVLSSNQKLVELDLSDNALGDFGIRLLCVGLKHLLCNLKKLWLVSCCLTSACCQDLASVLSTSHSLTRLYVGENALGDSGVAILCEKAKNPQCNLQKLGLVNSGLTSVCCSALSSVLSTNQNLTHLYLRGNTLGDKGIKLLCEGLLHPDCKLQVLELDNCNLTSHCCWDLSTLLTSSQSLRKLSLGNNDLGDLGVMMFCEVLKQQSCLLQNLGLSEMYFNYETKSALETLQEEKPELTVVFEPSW
UniProt Q8R4B8: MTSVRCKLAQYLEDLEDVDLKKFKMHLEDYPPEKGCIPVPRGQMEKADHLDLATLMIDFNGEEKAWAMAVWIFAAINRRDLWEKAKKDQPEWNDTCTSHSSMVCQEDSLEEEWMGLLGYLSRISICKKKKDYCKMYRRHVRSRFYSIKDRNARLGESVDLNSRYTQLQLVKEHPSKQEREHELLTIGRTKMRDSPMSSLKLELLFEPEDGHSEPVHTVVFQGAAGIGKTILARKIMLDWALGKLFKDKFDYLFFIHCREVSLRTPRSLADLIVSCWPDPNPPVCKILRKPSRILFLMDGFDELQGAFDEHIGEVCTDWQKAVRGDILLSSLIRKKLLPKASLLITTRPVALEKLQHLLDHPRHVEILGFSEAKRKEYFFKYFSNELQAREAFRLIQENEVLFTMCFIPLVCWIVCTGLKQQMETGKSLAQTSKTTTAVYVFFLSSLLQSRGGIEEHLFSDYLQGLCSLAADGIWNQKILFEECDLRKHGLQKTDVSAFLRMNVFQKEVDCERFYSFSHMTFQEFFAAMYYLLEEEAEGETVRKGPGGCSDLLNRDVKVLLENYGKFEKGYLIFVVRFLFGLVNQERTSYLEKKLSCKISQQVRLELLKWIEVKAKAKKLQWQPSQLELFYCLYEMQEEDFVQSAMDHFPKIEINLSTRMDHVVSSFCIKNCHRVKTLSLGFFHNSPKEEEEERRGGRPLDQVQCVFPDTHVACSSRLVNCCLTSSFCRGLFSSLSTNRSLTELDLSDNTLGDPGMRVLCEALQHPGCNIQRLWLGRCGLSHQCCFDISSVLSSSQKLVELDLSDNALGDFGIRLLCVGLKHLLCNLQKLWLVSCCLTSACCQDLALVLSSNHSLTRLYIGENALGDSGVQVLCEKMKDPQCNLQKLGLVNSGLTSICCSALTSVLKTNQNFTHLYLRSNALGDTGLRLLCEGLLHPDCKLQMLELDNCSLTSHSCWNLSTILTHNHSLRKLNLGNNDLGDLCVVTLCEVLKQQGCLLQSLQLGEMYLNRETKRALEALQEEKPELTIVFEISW

Results are given in words; binding and its absence hold for the method and conditions named. In cells and extracts the contact can be indirect. Some results given as binding are weak or reduced against the parent protein; the word gives no strength.

As for “NLRP3 S806D (human, doxycycline-inducible in NLRP3-deficient U937) (from UniProt Q96P20 1-1036)”, the binding entry in assay [1] is recorded as “no binding”.

Regarding “NLRP3 S803D (mouse, knock-in) (from UniProt Q8R4B8 1-1033)”, the binding entry in assay [2] was “no binding”.

Take “NLRP3 (mouse, wild type) (from UniProt Q8R4B8 1-1033)”: in assay [3], the binding result is reported as “binds”.

The values above are taken from paper PMC8494922.
